Some targets named below: IRAK3 (UniProt Q9Y616); JAK1 (UniProt P23458); LCK (UniProt P06239); LIMK1 (UniProt P53667); LIMK2 (UniProt P53671); LMTK2 (UniProt Q8IWU2); LYN (UniProt P07948); MAP2K1 (UniProt Q02750); MAP2K2 (UniProt P36507); MAP4K2 (UniProt Q12851).
Assay in all cases: kinase-Nluc reporter destabilization hit call (1 = scored as downregulated) (binary); higher = compound decreases kinase abundance
Details in all cases: K562; 2-18 h

Amino acid sequences for entries named in this document (tags omitted). A change or cut given only in a name is not applied to a line headed by its entry.
UniProt Q9Y616: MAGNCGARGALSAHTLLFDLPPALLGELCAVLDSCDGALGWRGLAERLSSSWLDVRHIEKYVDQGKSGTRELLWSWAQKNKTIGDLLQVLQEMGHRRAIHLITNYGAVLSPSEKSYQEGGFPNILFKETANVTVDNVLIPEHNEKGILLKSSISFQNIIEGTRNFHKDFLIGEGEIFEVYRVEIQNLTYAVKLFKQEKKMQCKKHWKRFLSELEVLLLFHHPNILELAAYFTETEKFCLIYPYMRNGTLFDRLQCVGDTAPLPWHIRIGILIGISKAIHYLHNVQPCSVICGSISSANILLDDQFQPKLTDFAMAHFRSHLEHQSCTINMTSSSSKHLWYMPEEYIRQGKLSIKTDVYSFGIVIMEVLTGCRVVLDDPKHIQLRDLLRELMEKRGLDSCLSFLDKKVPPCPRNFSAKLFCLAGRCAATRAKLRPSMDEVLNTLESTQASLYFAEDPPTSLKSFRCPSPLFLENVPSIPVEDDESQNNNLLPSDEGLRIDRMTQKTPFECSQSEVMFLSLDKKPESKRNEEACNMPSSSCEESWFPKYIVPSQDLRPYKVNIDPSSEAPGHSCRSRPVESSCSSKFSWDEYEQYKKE
UniProt P23458: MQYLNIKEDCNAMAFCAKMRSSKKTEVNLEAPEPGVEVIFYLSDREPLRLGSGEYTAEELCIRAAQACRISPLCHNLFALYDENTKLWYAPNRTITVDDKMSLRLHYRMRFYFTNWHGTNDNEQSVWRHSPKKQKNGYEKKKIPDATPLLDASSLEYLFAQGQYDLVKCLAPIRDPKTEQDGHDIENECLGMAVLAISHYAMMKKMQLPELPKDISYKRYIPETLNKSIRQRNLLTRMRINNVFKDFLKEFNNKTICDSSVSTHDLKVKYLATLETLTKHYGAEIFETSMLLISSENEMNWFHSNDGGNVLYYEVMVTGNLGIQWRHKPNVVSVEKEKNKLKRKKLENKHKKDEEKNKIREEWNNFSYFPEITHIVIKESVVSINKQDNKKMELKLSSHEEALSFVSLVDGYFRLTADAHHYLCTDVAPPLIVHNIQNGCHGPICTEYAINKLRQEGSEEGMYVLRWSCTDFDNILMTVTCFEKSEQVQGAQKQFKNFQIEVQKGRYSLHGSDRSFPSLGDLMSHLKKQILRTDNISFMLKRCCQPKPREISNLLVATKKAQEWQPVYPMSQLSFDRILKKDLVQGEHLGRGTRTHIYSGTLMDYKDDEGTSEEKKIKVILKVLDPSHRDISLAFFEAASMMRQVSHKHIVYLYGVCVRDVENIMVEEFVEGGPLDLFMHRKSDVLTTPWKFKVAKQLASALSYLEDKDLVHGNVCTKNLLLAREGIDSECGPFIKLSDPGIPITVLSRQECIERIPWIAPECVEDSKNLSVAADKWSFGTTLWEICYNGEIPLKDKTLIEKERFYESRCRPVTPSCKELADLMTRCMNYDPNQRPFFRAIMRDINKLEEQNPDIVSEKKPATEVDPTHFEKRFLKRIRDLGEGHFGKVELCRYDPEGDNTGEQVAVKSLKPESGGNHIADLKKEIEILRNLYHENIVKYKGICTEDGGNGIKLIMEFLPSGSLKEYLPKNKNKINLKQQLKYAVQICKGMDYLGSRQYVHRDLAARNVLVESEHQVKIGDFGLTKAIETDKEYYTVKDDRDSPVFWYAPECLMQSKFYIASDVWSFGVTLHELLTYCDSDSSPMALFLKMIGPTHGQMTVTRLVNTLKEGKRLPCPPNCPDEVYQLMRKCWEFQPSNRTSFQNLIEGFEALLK
UniProt P06239: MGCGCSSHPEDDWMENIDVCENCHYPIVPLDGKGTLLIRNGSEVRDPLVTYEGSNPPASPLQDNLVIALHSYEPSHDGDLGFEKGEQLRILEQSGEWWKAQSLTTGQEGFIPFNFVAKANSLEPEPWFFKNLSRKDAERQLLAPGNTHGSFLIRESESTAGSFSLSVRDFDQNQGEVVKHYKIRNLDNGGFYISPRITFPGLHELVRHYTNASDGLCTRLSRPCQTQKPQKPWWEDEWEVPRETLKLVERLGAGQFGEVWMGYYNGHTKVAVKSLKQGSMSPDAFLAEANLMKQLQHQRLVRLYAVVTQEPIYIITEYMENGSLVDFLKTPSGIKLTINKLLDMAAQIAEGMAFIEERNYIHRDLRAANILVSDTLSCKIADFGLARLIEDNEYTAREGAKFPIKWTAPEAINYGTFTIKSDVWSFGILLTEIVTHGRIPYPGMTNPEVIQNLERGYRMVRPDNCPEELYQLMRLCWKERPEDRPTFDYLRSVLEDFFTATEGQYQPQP
UniProt P53667: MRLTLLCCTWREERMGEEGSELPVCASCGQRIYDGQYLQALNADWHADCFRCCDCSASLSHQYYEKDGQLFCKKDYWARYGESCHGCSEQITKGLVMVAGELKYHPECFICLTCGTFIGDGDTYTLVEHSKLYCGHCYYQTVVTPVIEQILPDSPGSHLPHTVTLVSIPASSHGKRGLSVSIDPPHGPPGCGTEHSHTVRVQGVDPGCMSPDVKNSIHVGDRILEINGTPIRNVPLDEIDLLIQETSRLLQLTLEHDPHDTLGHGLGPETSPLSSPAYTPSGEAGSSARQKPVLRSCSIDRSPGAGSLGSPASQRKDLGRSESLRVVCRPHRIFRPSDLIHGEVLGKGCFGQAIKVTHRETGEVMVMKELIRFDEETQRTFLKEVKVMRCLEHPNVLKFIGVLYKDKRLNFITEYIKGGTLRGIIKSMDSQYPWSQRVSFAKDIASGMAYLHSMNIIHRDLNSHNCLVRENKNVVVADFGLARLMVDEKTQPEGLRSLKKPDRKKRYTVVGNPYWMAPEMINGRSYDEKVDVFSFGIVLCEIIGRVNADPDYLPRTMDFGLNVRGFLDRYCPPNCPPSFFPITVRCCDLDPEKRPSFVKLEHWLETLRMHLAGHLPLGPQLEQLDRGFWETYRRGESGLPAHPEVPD
UniProt P53671: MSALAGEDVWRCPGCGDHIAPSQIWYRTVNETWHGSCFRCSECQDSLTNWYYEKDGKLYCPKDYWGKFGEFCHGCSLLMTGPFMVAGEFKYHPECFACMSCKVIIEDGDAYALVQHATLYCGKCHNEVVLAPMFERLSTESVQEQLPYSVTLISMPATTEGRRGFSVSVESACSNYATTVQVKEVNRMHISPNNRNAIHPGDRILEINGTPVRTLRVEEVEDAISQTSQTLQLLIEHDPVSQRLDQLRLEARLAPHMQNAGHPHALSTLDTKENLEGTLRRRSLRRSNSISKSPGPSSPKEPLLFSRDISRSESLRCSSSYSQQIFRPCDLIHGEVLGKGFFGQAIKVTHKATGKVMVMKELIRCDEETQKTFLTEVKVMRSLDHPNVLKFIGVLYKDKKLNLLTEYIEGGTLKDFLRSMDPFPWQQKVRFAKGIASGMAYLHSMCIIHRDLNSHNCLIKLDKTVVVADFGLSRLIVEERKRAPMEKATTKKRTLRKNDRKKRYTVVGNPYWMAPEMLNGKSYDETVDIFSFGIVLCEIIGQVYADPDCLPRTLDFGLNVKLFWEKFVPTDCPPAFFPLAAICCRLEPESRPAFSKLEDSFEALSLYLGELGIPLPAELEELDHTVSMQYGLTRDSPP
UniProt Q8IWU2: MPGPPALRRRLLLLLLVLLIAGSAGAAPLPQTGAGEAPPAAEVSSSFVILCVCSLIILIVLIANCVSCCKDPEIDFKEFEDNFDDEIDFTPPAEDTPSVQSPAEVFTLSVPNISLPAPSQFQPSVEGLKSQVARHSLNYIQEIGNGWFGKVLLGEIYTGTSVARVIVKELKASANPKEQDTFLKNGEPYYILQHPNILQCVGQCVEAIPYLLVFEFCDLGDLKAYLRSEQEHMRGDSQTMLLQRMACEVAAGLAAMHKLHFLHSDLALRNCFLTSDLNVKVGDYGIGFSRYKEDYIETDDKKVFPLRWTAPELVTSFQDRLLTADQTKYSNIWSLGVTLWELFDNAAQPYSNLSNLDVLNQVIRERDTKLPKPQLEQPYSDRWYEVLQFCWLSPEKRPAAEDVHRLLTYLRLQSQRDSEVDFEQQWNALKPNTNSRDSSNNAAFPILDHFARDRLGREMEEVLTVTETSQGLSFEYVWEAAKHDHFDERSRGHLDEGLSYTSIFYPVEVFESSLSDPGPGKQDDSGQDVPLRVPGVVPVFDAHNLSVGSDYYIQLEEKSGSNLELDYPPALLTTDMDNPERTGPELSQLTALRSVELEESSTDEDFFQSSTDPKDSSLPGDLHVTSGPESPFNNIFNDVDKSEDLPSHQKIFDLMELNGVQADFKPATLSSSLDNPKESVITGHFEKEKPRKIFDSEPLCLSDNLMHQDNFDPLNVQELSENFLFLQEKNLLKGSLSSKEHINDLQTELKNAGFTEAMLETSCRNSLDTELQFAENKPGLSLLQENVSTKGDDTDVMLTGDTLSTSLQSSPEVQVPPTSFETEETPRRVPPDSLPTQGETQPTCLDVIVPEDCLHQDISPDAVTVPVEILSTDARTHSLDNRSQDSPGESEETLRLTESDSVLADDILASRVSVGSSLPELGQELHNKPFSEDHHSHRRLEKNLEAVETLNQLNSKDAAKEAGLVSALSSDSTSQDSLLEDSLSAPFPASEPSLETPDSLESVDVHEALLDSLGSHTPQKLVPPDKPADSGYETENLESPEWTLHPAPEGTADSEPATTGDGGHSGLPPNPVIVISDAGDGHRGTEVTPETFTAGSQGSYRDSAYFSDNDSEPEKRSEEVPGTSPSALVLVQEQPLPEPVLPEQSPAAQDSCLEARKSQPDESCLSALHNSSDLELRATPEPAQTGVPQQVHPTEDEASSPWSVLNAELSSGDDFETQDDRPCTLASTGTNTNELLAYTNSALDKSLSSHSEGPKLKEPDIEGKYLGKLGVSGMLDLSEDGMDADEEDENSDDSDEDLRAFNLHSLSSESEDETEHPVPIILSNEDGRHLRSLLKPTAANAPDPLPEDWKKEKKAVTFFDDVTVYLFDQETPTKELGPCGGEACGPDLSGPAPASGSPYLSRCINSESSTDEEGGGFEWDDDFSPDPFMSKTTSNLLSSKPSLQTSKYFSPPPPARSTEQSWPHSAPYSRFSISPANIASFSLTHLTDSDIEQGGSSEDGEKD
UniProt P07948: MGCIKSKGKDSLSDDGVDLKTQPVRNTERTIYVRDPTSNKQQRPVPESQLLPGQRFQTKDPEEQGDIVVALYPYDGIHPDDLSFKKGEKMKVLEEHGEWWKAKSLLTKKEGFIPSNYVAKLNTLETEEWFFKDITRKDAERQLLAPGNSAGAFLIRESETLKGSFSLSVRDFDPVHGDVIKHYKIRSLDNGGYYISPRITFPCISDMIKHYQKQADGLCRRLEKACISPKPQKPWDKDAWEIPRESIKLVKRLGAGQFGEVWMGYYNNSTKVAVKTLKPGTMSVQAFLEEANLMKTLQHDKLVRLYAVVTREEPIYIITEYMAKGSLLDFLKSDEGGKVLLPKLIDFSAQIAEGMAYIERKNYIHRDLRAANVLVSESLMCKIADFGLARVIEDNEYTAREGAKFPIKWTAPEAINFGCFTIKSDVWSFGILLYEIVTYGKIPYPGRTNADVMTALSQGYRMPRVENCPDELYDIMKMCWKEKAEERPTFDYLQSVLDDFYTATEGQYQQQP
UniProt Q12851: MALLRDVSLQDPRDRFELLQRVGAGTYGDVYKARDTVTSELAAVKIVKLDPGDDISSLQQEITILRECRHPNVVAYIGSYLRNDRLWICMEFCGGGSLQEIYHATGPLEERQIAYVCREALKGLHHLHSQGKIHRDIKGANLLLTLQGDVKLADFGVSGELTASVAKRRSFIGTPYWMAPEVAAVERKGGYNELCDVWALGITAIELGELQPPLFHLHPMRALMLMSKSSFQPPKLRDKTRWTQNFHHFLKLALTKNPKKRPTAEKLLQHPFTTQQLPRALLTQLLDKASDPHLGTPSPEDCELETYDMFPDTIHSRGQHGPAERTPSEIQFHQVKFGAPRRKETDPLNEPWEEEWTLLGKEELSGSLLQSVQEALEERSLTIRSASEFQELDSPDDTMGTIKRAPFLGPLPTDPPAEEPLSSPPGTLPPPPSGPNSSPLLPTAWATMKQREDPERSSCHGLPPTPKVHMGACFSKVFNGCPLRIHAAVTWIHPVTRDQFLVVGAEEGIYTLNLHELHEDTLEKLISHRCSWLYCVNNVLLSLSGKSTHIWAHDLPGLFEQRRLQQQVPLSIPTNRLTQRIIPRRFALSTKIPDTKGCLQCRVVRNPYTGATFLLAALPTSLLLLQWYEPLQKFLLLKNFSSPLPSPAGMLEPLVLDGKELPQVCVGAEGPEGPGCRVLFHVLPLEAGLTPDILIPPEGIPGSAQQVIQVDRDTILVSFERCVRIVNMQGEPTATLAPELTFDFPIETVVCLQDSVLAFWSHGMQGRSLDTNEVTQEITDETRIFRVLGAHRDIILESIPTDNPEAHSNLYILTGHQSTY

Structures can show the parent of a compound that is named as a salt. The list shows a part of the results. The calls rarely recur for the same compound in another form.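 Kinases were expressed as nanoluciferase fusions in K562 cells and luminescence was read every 4 h between 2 and 18 h as percent of control, DMSO set to 100% and a positive control to 0%. A time point counts as decreased when the signal drops significantly (2 sigma). The hit call is the authors' own, does not follow from the count of time points alone, and its rule is not shown.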

Experimental findings from the supplement of paper PMC12823440, “Inhibitors supercharge kinase turnover through native proteolytic circuits” (Nature, 2025) are described below.

Consider `OCCNC1CCCc2c1[nH]c1ccc(-c3ccccc3)cc21` (stereo not given) (2.5 µM), for which the “kinase-Nluc reporter destabilization hit call” value is inactive: 0 with IRAK3; inactive: 0 with JAK1; inactive: 0 with LCK; inactive: 0 with LIMK1; active: 1 with LIMK2; inactive: 0 with LMTK2. The “kinase-Nluc reporter destabilization hit call” value in the test with LYN, with MAP2K1, in the test with MAP2K2 and with MAP4K2 was inactive: 0 each time.
Regarding `COCCOc1cnc(Sc2cc(C)c(-c3csc(NC(=O)c4ccncc4)n3)c(C)c2)cn1` [T-1101 (tosylate)] (2.5 µM), the “kinase-Nluc reporter destabilization hit call” value with IRAK3, with JAK1, with LCK, with LIMK1, with LIMK2 and with LMTK2 was inactive: 0 throughout. For the same molecule, the “kinase-Nluc reporter destabilization hit call” value in the test with LYN, with MAP2K1, with MAP2K2 and with MAP4K2 was inactive: 0 throughout.
In the case of `CC[C@@]1(c2ccccc2)C2=C(CC(C)(C)CC2=O)Nc2[nH]ncc21` (10 µM), the “kinase-Nluc reporter destabilization hit call” value with IRAK3, with JAK1, with LCK, with LIMK1, with LIMK2 and with LMTK2 was inactive: 0 throughout. The “kinase-Nluc reporter destabilization hit call” value with LYN, in the test with MAP2K1, in the test with MAP2K2 and with MAP4K2 was inactive: 0 in each case.
As to `CN1C(=O)C(Cc2c[nH]c3ccccc23)NC1=S` (stereo not given) [Necrostatin-1] (10 µM), the “kinase-Nluc reporter destabilization hit call” value with IRAK3, in the test with JAK1, with LCK, in the test with LIMK1, with LIMK2 and with LMTK2 was inactive: 0 throughout. Further, the “kinase-Nluc reporter destabilization hit call” value with LYN, in the test with MAP2K1, with MAP2K2 and with MAP4K2 was inactive: 0 in each case.
As for `Cc1cc(O)c(C(C)C)cc1N=O` [Poloxime] (10 µM), the “kinase-Nluc reporter destabilization hit call” value in the test with IRAK3, with JAK1, in the test with LCK, in the test with LIMK1, in the test with LIMK2 and with LMTK2 was inactive: 0 each time. Besides, the “kinase-Nluc reporter destabilization hit call” value in the test with LYN, with MAP2K1, with MAP2K2 and with MAP4K2 was inactive: 0 in each case.
Take `NCc1ccc(Nc2ncc(F)c(Nc3ccccc3)n2)cc1` (10 µM): the “kinase-Nluc reporter destabilization hit call” value with IRAK3, in the test with JAK1, with LCK, in the test with LIMK1, with LIMK2 and with LMTK2 was inactive: 0 in each case. Moreover, the “kinase-Nluc reporter destabilization hit call” value with LYN, in the test with MAP2K1, with MAP2K2 and with MAP4K2 was inactive: 0 in each case.
As to `CC(C)=CC(=O)CCC(=O)N1CCN(Cc2cc3nc(-c4cccc5[nH]ncc45)nc(N4CCOCC4)c3s2)CC1` (10 µM), the “kinase-Nluc reporter destabilization hit call” value in the test with IRAK3, with JAK1, with LCK, with LIMK1, with LIMK2 and in the test with LMTK2 was inactive: 0 in each case. For the same molecule, the “kinase-Nluc reporter destabilization hit call” value with LYN, with MAP2K1, with MAP2K2 and with MAP4K2 was inactive: 0 each time.
`c1cn2cc(-c3ccc4cn[nH]c4c3)nc(Nc3ccc(N4CCOCC4)cc3)c2n1` [Entospletinib] (10 µM): the “kinase-Nluc reporter destabilization hit call” value with IRAK3, with JAK1, in the test with LCK, in the test with LIMK1, with LIMK2 and with LMTK2 was inactive: 0 in each case. Further, the “kinase-Nluc reporter destabilization hit call” value with LYN, in the test with MAP2K1, in the test with MAP2K2 and in the test with MAP4K2 was inactive: 0 each time.
For `O=C(NC(NC(=S)Nc1ccc(F)c([N+](=O)[O-])c1)C(Cl)(Cl)Cl)C(c1ccccc1)c1ccccc1` (stereo not given) (10 µM), the “kinase-Nluc reporter destabilization hit call” value with IRAK3, with JAK1, with LCK, in the test with LIMK1, with LIMK2 and in the test with LMTK2 was inactive: 0 throughout. For the same molecule, the “kinase-Nluc reporter destabilization hit call” value with LYN, with MAP2K1, in the test with MAP2K2 and with MAP4K2 was inactive: 0 each time.
For `COc1ccc(Cn2cc(C(=O)N=Nc3c(O)[nH]c4c(C)cccc34)nn2)cc1` [MARK4 inhibitor 1] (10 µM), the “kinase-Nluc reporter destabilization hit call” value in the test with IRAK3, with JAK1, in the test with LCK, in the test with LIMK1, with LIMK2 and with LMTK2 was inactive: 0 each time. For the same molecule, the “kinase-Nluc reporter destabilization hit call” value in the test with LYN, with MAP2K1, with MAP2K2 and in the test with MAP4K2 was inactive: 0 throughout.
Turning to `Cc1cc2cc(Nc3ccnc(Nc4ccc5[nH]c(C)cc5c4)n3)ccc2[nH]1` (2.5 µM), the “kinase-Nluc reporter destabilization hit call” value with IRAK3, in the test with JAK1, with LCK, with LIMK1, with LIMK2 and with LMTK2 was inactive: 0 in each case. In addition, the “kinase-Nluc reporter destabilization hit call” value with LYN, with MAP2K1, with MAP2K2 and with MAP4K2 was inactive: 0 in each case.
In the case of `C/C(=C1/C(=O)Nc2ccc(NC(N)=O)cc21)c1ccc[nH]1` (10 µM), the “kinase-Nluc reporter destabilization hit call” value with IRAK3, with JAK1, in the test with LCK, with LIMK1, with LIMK2 and in the test with LMTK2 was inactive: 0 throughout. Also, the “kinase-Nluc reporter destabilization hit call” value in the test with LYN, with MAP2K1, with MAP2K2 and in the test with MAP4K2 was inactive: 0 each time.
As to `CN(C)CCN(Cc1ccc(Cl)cc1)c1ccccn1` [Chloropyramine hydrochloride] (10 µM), the “kinase-Nluc reporter destabilization hit call” value with IRAK3, with JAK1, with LCK, with LIMK1, in the test with LIMK2 and with LMTK2 was inactive: 0 each time. Besides, the “kinase-Nluc reporter destabilization hit call” value in the test with LYN, with MAP2K1, with MAP2K2 and in the test with MAP4K2 was inactive: 0 in each case.
Take `Cc1c(NC(=O)OC[C@@H]2COCCN2)cn2ncnc(Nc3ccc4c(cnn4Cc4cccc(F)c4)c3)c12` (10 µM): the “kinase-Nluc reporter destabilization hit call” value with IRAK3, with JAK1, in the test with LCK, with LIMK1, with LIMK2 and with LMTK2 was inactive: 0 in each case. Besides, the “kinase-Nluc reporter destabilization hit call” value in the test with LYN, with MAP2K1, with MAP2K2 and with MAP4K2 was inactive: 0 each time.
As for `COc1ccc(-c2ccc3c(N4CCOC[C@@H]4C)nc(N4CCOC[C@@H]4C)nc3n2)cc1CO` (2.5 µM), the “kinase-Nluc reporter destabilization hit call” value in the test with IRAK3, with JAK1, with LCK, with LIMK1, with LIMK2 and with LMTK2 was inactive: 0 throughout. Moreover, the “kinase-Nluc reporter destabilization hit call” value with LYN, in the test with MAP2K1, with MAP2K2 and with MAP4K2 was inactive: 0 throughout.
